The values that follow come from the M2OR odorant receptor database.

The entries are a selection whose mix differs from that of the whole data set. Calls are pooled over several reports, among them a noisy single-well screen.
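Note: active if original authors judged signal statistically different from baseline.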

This experiment addresses T1, OR1C1 (Homo sapiens) (UniProt Q15619).
T1 sequence (whole entry): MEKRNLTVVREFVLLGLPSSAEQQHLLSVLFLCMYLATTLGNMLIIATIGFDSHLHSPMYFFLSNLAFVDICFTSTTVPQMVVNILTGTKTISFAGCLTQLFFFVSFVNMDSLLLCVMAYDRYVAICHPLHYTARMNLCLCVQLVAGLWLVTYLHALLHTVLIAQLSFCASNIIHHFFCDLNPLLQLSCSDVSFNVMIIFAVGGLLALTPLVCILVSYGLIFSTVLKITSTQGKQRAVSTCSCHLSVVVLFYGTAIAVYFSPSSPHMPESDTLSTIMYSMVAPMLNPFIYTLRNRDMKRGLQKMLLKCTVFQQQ
As to conditions: stereoisomer not certain. In short, it runs like this: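 Each receptor–molecule pair is labelled responsive or non-responsive (inactive) according to whether the original authors judged the measured signal statistically different from baseline. The data were taken from the main text and supplementary material of published papers and checked for typos and inconsistencies. Assay methods differed by source, with transient luciferase assays in mammalian cell lines being common.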
In the case of `CC(=O)c1ccccc1`, the “odorant receptor agonist call” value is “inactive”.

On to `CC12C=CCC1C1CCC3=CC(=O)CCC3(C)C1CC2` (centres undefined), for which the “odorant receptor agonist call” value was “inactive”.

Take `CC(C)CCC(=O)O`: the “odorant receptor agonist call” value is “inactive”.

In the case of `O=C1CCCCC1`, the “odorant receptor agonist call” value was “inactive”.

Take `CC(=O)C(C)=O`: the “odorant receptor agonist call” value is “inactive”.

As to `CC12C=CCC1C1CCC3CC(=O)CCC3(C)C1CC2` (centres undefined), the “odorant receptor agonist call” value is “inactive”.

`CCCCCCCCOC(C)=O`: the “odorant receptor agonist call” value was “inactive”.

Turning to `CCCCCCCCCC=O`, the “odorant receptor agonist call” value was “inactive”.

`CC12CCC(CC1)C(C)(C)O2`: the “odorant receptor agonist call” value is “inactive”.

As to `C=CC(C)(O)CCC=C(C)C` (centres undefined), the “odorant receptor agonist call” value was “active”.

Take `CC(C)C(=O)O`: the “odorant receptor agonist call” value was “inactive”.

Take `CC(C)=CCCC(C)=CC=O`: the “odorant receptor agonist call” value is “inactive”.

Regarding `CCC1(O)C2(C)CCC(C2)C1(C)C` (centres undefined), the “odorant receptor agonist call” value was “inactive”.

Consider `CCCC(=O)O`, for which the “odorant receptor agonist call” value is “inactive”.

In the case of `CC1=CCC(C(C)(C)O)CC1` (centres undefined), the “odorant receptor agonist call” value was “inactive”.

On to `C=CCSCC=C`, for which the “odorant receptor agonist call” value is “inactive”.

In the case of `COC(=O)c1ccccc1O`, the “odorant receptor agonist call” value was “inactive”.

With `CCCCO`, the “odorant receptor agonist call” value is “inactive”.

Consider `CC(=O)OC(C)(C)C1CC=C(C)CC1` (centres undefined), for which the “odorant receptor agonist call” value is “inactive”.

For the compound `O=CCc1ccccc1`, the “odorant receptor agonist call” value was “inactive”.

For `COc1cc(C=O)ccc1O`, the “odorant receptor agonist call” value is “inactive”.

As to `C=CCc1ccc(OC(C)=O)c(OC)c1`, the “odorant receptor agonist call” value is “inactive”.

As for `CCCCCC(C)=O`, the “odorant receptor agonist call” value is “inactive”.

`CCCCCCCC=CC=O`: the “odorant receptor agonist call” value was “active”.
